From the supplement of paper PMC8104966
± gives the standard deviation of the averaged measurements. This is one part of the list. Repeats in this data set agree poorly, so a single value says little.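 U2OS cells expressing ACE2 were combined with U2OS cells expressing full-length spike, and imaging quantified fusion as the fraction of nuclei displaying both cell types' fluorescent markers. Non-toxic compounds with a fusion z-score under -3, i.e., over three standard deviations below the plate's DMSO wells, are called inhibitory hits.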

What follows are compounds tested on U2OS ACE2 x SARS-CoV-2 spike co-culture (assay: cell-cell fusion (fraction fused) z-score vs plate DMSO control; higher = more fusion). Conditions: 30 µM; 5 h; toxicity class: non-toxic, passed QC.

| SMILES | cell-cell fusion (z-score) |
| --- | --- |
| CC1CCC(NC(=O)N(CCCl)N=O)CC1 (stereo not given) | inactive: 0.0827 |
| O=C([O-])c1cc2cc(Cc3cccnc3)ccc2o1.[Na+] [Furegrelate sodium] | inactive: 5.41 |
| NS(=O)(=O)c1cc2c(cc1Cl)NC(C1CC3C=CC1C3)NS2(=O)=O (stereo not given) [Cyclothiazide] | inactive: 0.302 |
| NS(=O)(=O)c1cc2c(cc1Cl)NC(C1CC3C=CC1C3)NS2(=O)=O (stereo not given) | inactive: 2.04 |
| CC(=O)Oc1ccc2c(c1)CCC1C2CC[C@@]2(C)C1C[C@@H](OC(C)=O)[C@@H]2OC(C)=O (stereo not given in full) | inactive: 2.93 |
| CCOC(=O)c1c(C)cc(O)c(C=O)c1O | inactive: 1.95 |
| NCC(O)c1ccc(O)c(O)c1.O=C(O)[C@H](O)[C@@H](O)C(=O)O (racemic) [(±)-Norepinephrine (+)bitartrate] | inactive: -2.48 |
| CN(C(=O)Cc1ccc(Cl)c(Cl)c1)C(CN1CCCC1)c1cccc(OCC(=O)O)c1.Cl (stereo not given) [ICI 204,448 hydrochloride] | inactive: 1.93 |
| COCCOc1cc2ncnc(Cl)c2cc1OCCOC | inactive: 1.44 |
| Fc1cccc(/C=N/N=C/c2cccc(F)c2)c1 | inactive: 3.34 |
| [N-]=[N+]=CC(=O)OCC(N)C(=O)O (stereo not given) | inactive: 2.05 |
| O=c1c2ccccc2nc2n1CCc1c-2[nH]c2ccccc12 [Rutaecarpine] | inactive: -0.516 |
| CCC(=O)O[C@]1(C(=O)CCl)[C@@H](C)C[C@H]2[C@@H]3C[C@H](F)C4=CC(=O)C=C[C@]4(C)[C@@]3(F)[C@@H](O)C[C@@]21C [Halobetasol Propionate] | inactive: 0.397 |
| CC(=O)Oc1cc(OC(C)=O)c2c(c1)O[C@H](c1ccc(OC(C)=O)c(OC(C)=O)c1)[C@@H](OC(C)=O)C2 | inactive: 0.424 |
| CN1CCCC(n2nc(Cc3ccc(Cl)cc3)c3ccccc3c2=O)CC1.Cl (stereo not given) | inactive: 1.17 |
| Cl.NCCc1cc(O)c(O)cc1O | inactive: 0.0614 |
| CC(C)CC(NC(=O)C(C)NC(=O)CNC(=O)C(NC=O)C(C)C)C(=O)NC(C)C(=O)NC(C(=O)NC(C(=O)NC(C(=O)NC(Cc1c[nH]c2ccccc12)C(=O)NC(CC(C)C)C(=O)NC(Cc1c[nH]c2ccccc12)C(=O)NC(CC(C)C)C(=O)NC(Cc1c[nH]c2ccccc12)C(=O)NC(CC(C)C)C(=O)NC(Cc1c[nH]c2ccccc12)C(=O)NCCO)C(C)C)C(C)C)C(C)C (stereo not given) | active: -7.67 |
| CC(=O)[C@H]1CC[C@H]2[C@@H]3CC[C@H]4C[C@](C)(O)CC[C@]4(C)[C@H]3CC[C@]12C [Ganaxolone] | inactive: -0.118 |
| O=C(/C=C/c1ccccc1)c1ccc(O)cc1O | inactive: 1.37 |
| CCOc1cc(/C=C2/C(=O)N(c3ccccc3)N=C2C)cc(Cl)c1OCC(=O)OC | inactive: 1.29 |
| CCC(N)C(O)c1ccc(O)c(O)c1.Cl (stereo not given) | inactive: -1.24 |
| CS(=O)(=O)c1ccc(-n2nc(C(F)(F)F)cc2-c2ccc(F)cc2)cc1 | inactive: 3.22 |
| CNCC[C@H](Oc1cccc2ccccc12)c1cccs1.Cl [Duloxetine hydrochloride] | inactive: 0.758 |
| O=c1cc(-c2ccccc2)oc2ccc(O)cc12 | inactive: 1.44 |

Quoted from the listing.
cell-cell fusion (z-score), NS(=O)(=O)c1cc2c(cc1Cl)NC(C1CC3C=CC1C3)NS2(=O)=O (stereo not given) is entered as inactive: 2.04
cell-cell fusion (z-score), CC(=O)Oc1ccc2c(c1)CCC1C2CC[C@@]2(C)C1C[C@@H](OC(C)=O)[C@@H]2OC(C)=O (stereo not given in full) is entered as inactive: 2.93
cell-cell fusion (z-score), CCOC(=O)c1c(C)cc(O)c(C=O)c1O is entered as inactive: 1.95

Additional records:

| SMILES | cell-cell fusion (z-score) |
| --- | --- |
| CC1=NN(c2ccc(C(=O)O)cc2)C(=O)/C1=C\c1ccc(-c2cc(C)c(C)cc2[N+](=O)[O-])o1 | inactive: 0.455 |
| CN[C@@H]1[C@@H](O)C(OC2[C@@H](N)C[C@@H](N)[C@H](O[C@H]3O[C@H](C(C)O)[C@@H](O)[C@H](O)[C@H]3N)[C@H]2O)OC[C@]1(C)O (stereo not given in full) | inactive: 1.9 |
| CN(C)C(=O)Oc1cccc([N+](C)(C)C)c1.[Br-] | inactive: -0.111 |
| O=[N+]([O-])c1cccc2cn[nH]c12 [7-Nitroindazole] | inactive: 2.62 |
| CN1CCOC(c2ccccc2)c2ccccc2C1 (stereo not given) | inactive: 1.49 |
| CCN(CC)Cc1cc(Nc2ccnc3cc(Cl)ccc23)ccc1O.Cl.Cl.O.O [Amodiaquine hydrochloride] | inactive: -2.61 |
| CC(=O)OCC(=O)[C@H]1CC[C@H]2[C@@H]3CCC4=CC(=O)CC[C@]4(C)[C@H]3CC[C@]12C [Deoxycorticosterone acetate] | inactive: 3.05 |
| CCOC(=O)C1C(C=C(C)C)C1(C)C (stereo not given) | inactive: 2.4 |
| O=C(CCCCCCC(=O)Nc1cccnc1)NO [Pyroxamide] | inactive: 2.09 |
| CCN(CC)CCOc1ccc(C(=C(Cl)c2ccccc2)c2ccccc2)cc1.O=C(O)CC(O)(CC(=O)O)C(=O)O [Clomifene citrate] | inactive: -2 |
| CNCCc1c[nH]c(CCC(c2ccccc2)c2ccccc2)n1.O=C(O)C(=O)O.O=C(O)C(=O)O [N-Methylhistaprodifen dioxalate salt] | inactive: 4.92 |
| CC[C@@H]([C@H](C)O)n1ncn(-c2ccc(N3CCN(c4ccc(OC[C@@H]5CO[C@@](Cn6cncn6)(c6ccc(F)cc6F)C5)cc4)CC3)cc2)c1=O [Posaconazole] | inactive: 1.41 |
| CN(C)CCCN1c2ccccc2CCc2ccccc21.Cl [Imipramine hydrochloride] | inactive: 2.36 |
| CN(C)CCCN1c2ccccc2CCc2ccccc21.Cl | inactive: 0.749 |
| Cc1cc(C)nc(NS(=O)(=O)c2ccc(N)cc2)n1 [Sulfamethazine] | inactive: 3.12 |
| CC[C@@H]1C(=O)N(C)c2cnc(Nc3ccc(C(=O)NC4CCN(C)CC4)cc3OC)nc2N1C1CCCC1 | inactive: 2.11 |
| CN(C)c1ccc(NCc2ccccn2)cc1 | inactive: 3.85 |
| CCCCCCCCc1ccc(-c2ccc(C(=O)O)cc2)cc1 | inactive: 2.98 |
| COc1ccc(-c2oc3cc(OC)c(OC)c(OC)c3c(=O)c2OC)cc1 | inactive: 1.71 |
| NC(=O)c1ccc([N+](=O)[O-])cc1Cl | inactive: 3.25 |
| Cc1cn[nH]c1 | inactive: -0.506 |
| CC1(C(=O)O)C2CCC(O2)C1(C)C(=O)O (stereo not given) [Cantharidic Acid] | inactive: 1.39 |
| CC(C(=O)O)[C@H]1CCC2C3CC=C4C[C@@H](O)CC[C@]4(C)C3CC[C@@]21C (stereo partly drawn) [3beta-HYDROXY-23,24-BISNORCHOL-5-ENIC ACID] | inactive: 2.78 |
| CC(=O)O[C@H]1CCC2(C)C3=C(CCC2C1(C)C)[C@@]1(C)CC[C@@H](C(C)CCC=C(C)C)[C@]1(C)CC3 (stereo not given in full) | inactive: 1.13 |

| SMILES | cell-cell fusion (z-score) |
| --- | --- |
| N=C(N)NCC1COC2(CCCCC2)O1.O=S(=O)(O)O (stereo not given) | inactive: 1.15 |
| CO[C@H]1C[C@@H]2CC[C@@H](C)[C@@](O)(O2)C(=O)C(=O)N2CCCC[C@H]2C(=O)O[C@H]([C@H](C)C[C@@H]2CC[C@@H](O)[C@H](OC)C2)CC(=O)[C@H](C)/C=C(\C)[C@@H](O)[C@H](OC)C(=O)[C@H](C)C[C@H](C)/C=C/C=C/C=C/1C [Rapamycin (Sirolimus)] | -4.31 ± 5.8 |
| CCN(CC)CCOC(=O)c1ccc(N)cc1.Cl [Procaine hydrochloride] | inactive: 1.76 |
| O=C(c1cc(O)c(O)c([N+](=O)[O-])c1)c1ccccc1F | inactive: 0.476 |
| Nc1nc(OCC2CCCCC2)c2nc[nH]c2n1 | inactive: -0.12 |
| Cc1ccccc1-n1c(Cn2ncc3c(N)ncnc32)nc2cccc(C)c2c1=O | inactive: 0.386 |
| c1cncc(CN2CCC(n3ncc4c(N5CCOCC5)nc(-c5ccc6[nH]ccc6c5)nc43)CC2)c1 | active: -4.81 |
| CC(=O)OCC1=C(C(=O)[O-])N2C(=O)[C@@H](NC(=O)CCCC(N)C(=O)[O-])C2SC1.[Zn+2] (stereo not given in full) | inactive: 1.53 |
| CCC[C@H](NC(=O)/C(C#N)=C/c1cccc(Br)n1)c1ccccc1 | inactive: 2.35 |
| Cc1cnc(C(=O)NCCc2ccc(S(=O)(=O)NC(=O)NC3CCCCC3)cc2)cn1 [Glipizide] | inactive: 1.27 |
| COc1ccc2c(c1)OCC(Cc1ccc(OC)c(OC(C)=O)c1)C2=O (stereo not given) | inactive: 2.92 |
| CC(C)NCC(O)c1ccc2ccccc2c1.Cl (stereo not given) | inactive: 0.284 |
| CC(C)(C)NC[C@H](O)c1ccc(O)c(CO)c1.Cl | inactive: 0.361 |
| Nc1ccc([As](=O)(O)O)cc1 | inactive: 3.07 |
| CC(=O)[C@@]12O[C@]1(C)CC1C3CC=C4C[C@@H](O)CC[C@]4(C)C3CC[C@@]12C (stereo partly drawn) [16beta-METHYL-16(17)-EPOXY-5-PREGNENOLONE] | inactive: 3.16 |
| O=c1[nH]c2ccccc2n1C1CCN(CCCC(c2ccc(F)cc2)c2ccc(F)cc2)CC1 [Pimozide] | inactive: 1.9 |
| O=C(NC(NC(=S)Nc1ccc(F)c([N+](=O)[O-])c1)C(Cl)(Cl)Cl)C(c1ccccc1)c1ccccc1 (stereo not given) | active: -4.65 |
| COC1=CC(=O)C(O)=C/C1=C\C=C\c1ccccc1 | inactive: 2.17 |
| CS(=O)(=O)O.CSc1ccc2c(c1)C(N1CCN(C)CC1)Cc1ccccc1S2 (stereo not given) [Methiothepin mesylate] | inactive: -1.61 |
| Cc1cc2cc3c(C)cc(=O)oc3c(C)c2o1 [Trioxsalen] | inactive: 2.87 |
| CN(C)CCc1c[nH]c2ccc(Cn3cncn3)cc12.O=C(O)c1ccccc1 | inactive: 0.807 |
| CN(C)CCc1c[nH]c2ccc(Cn3cncn3)cc12.O=C(O)c1ccccc1 [Rizatriptan benzoate salt] | inactive: 1.53 |
